# The supplement of paper PMC3682954
# Where “and” joins values, the source holds several entries; their conditions need not be identical. Identical values can stand only once. Counter-ions that a name gives are not always drawn. ± gives the standard deviation of the averaged measurements. The list shows a part of the results. Single values are uncertain, as repeats are few or missing.
# System: RAW 264.7
# Experiment: HMGB1-induced TNF-alpha production relative to HMGB1-stimulated control; higher = more TNF-alpha secretion (less inhibition)
# Conditions: stimulus: HMGB1 5 ug/ml, 18 h
# [1] = compound concentration: 1 ug/ml
SMILES,HMGB1-induced TNF-alpha production (compound concentration: 3 uM),HMGB1-induced TNF-alpha production [1]
COc1ccccc1OCC(O)CO (centres undefined) [Guaifenesin],102 ± 9.6%,
COc1ccccc1OCC(O)CO (centres undefined),84.6%,
Cc1cc(O)cc(O)c1 [Orcinol],,76.7%
COc1ccc2c(CN(C)CCC#N)cc(=O)oc2c1,,65.1%
Cc1cc(=O)[nH]c(=S)[nH]1,99%,
CC(=O)[C@H]1CC[C@H]2[C@@H]3C=CC4=CC(=O)CC[C@@]4(C)[C@@H]3CC[C@]12C [Dydrogesterone],97.6%,
COc1ccccc1N1CCN(CCCCN2C(=O)c3ccccc3C2=O)CC1 [NAN-190 hydrobromide],105%,
CN1[C@@H]2CC[C@H]1C[C@@H](OC(=O)c1c[nH]c3ccccc13)C2 [Tropisetron HCl],73%,
CN1[C@@H]2CC[C@H]1C[C@@H](OC(=O)c1c[nH]c3ccccc13)C2 [Tropisetron],72.1%,
CN1[C@@H]2CC[C@H]1C[C@@H](OC(=O)c1c[nH]c3ccccc13)C2,46.4%,
Cc1cccc(C)c1OCC(C)N (centres undefined) [Mexiletine hydrochloride],74%,
Cc1cccc(C)c1OCC(C)N (centres undefined),89.4%,
Cc1cccc(C)c1OCC(C)N (centres undefined) [Mexiletene hydrochloride],103%,
COc1ccc(/C=C/C(=O)Nc2ccccc2C(=O)O)cc1OC,96.7 ± 10%,
COc1ccc(/C=C/C(=O)Nc2ccccc2C(=O)O)cc1OC [Tranilast],102 ± 8.8%,
"CO[C@H]1O[C@@H]2COC(c3ccccc3)O[C@H]2[C@H](O)[C@H]1O (single isomer, unassigned; (+)) [(+)-(4,6-O-Benzylidene)methyl-alpha-D-glucopyranoside]",,63.1%
CCOC(=O)C1=C(COCCN)NC(C)=C(C(=O)OC)C1c1ccccc1Cl (centres undefined),82.8% and 92.4%,
CCOC(=O)C1=C(COCCN)NC(C)=C(C(=O)OC)C1c1ccccc1Cl (centres undefined) [Amlodipine],76.5 ± 14%,
Oc1ccc(/C=C/c2cc(O)cc(O)c2)cc1 [Resveratrol],79 ± 29%,
Oc1ccc(/C=C/c2cc(O)cc(O)c2)cc1,118%,
Oc1c(Cl)cc(Cl)c(Cl)c1Cc1c(O)c(Cl)cc(Cl)c1Cl [Hexachlorophene],139%,
Oc1c(Cl)cc(Cl)c(Cl)c1Cc1c(O)c(Cl)cc(Cl)c1Cl,119 ± 52%,
Cc1c(N(C)C)c(=O)n(-c2ccccc2)n1C,80.7%,
Cc1c(N(C)C)c(=O)n(-c2ccccc2)n1C [Amidopyrine],86.5%,
"CCCc1c(-c2ccc(O)cc2)nn(-c2ccc(O)cc2)c1-c1ccc(O)cc1 [1,3,5-tris(4-hydroxyphenyl)-4-propyl-1H-pyrazole]",80.5%,
NC(=O)c1ccc2[nH]ccc2c1,87.4%,
CC(C(=O)O)c1ccc2c(c1)[nH]c1ccc(Cl)cc12 (centres undefined),80.4%,

SMILES,HMGB1-induced TNF-alpha production (compound concentration: 3 uM),HMGB1-induced TNF-alpha production [1]
CC(C(=O)O)c1ccc2c(c1)[nH]c1ccc(Cl)cc12 (centres undefined) [Carprofen],102%,
CCCCc1cc2ccccc2c(OCCN(C)C)n1 [Dimethisoquin hydrochloride],107%,
C=CCc1cccc(/C=N/NC(=O)CN2CCN(Cc3ccccc3)CC2)c1O,104%,
Cc1cccc(C)c1NC(=O)C(C)N (centres undefined) [Tocainide hydrochloride],91.5 ± 15%,
Cc1cccc(C)c1NC(=O)C(C)N (centres undefined),101%,
O=C1c2c(O)cccc2C([C@@H]2O[C@H](CO)[C@@H](O)[C@H](O)[C@H]2O)c2cc(CO)cc(O)c21 (some centres undefined),95.5%,
NC(=S)NCCC[C@H](N)C(=O)O [L-Thiocitrulline],,79.6%
CC[N+](CC)(CC)CCOc1ccc(/C=C/c2ccccc2)cc1,113%,
Nc1nc2[nH]cnc2c(=S)[nH]1,112 ± 6.3%,
C/C1=C2/[N-][C@H]([C@H](CC(N)=O)[C@@]2(C)CCC(=O)NC[C@@H](C)OP(=O)([O-])O[C@H]2[C@@H](O)[C@@H](n3cnc4cc(C)c(C)cc43)O[C@@H]2CO)[C@]2(C)N=C(/C(C)=C3N=C(/C=C4N=C1[C@@H](CCC(N)=O)C\4(C)C)[C@@H](CCC(N)=O)[C@]\3(C)CC(N)=O)[C@@H](CCC(N)=O)[C@]2(C)CC(N)=O.[CH2-][C@H]1O[C@H](n2cnc3c(N)ncnc32)[C@@H](O)[C@H]1O.[Co+3],68.5%,
COc1cc(C[C@@H](CO)[C@H](CO)Cc2ccc(O)c(OC)c2)ccc1O,97%,
CN(C)C(=O)C(CCN1CCC(O)(c2ccc(Cl)cc2)CC1)(c1ccccc1)c1ccccc1,67.5%,
CN(C)C(=O)C(CCN1CCC(O)(c2ccc(Cl)cc2)CC1)(c1ccccc1)c1ccccc1 [Loperamide hydrochloride],76 ± 21%,
CN(C)C(=O)C(CCN1CCC(O)(c2ccc(Cl)cc2)CC1)(c1ccccc1)c1ccccc1 [Loperamide],72.9%,
O=c1ccc2cc(O)c(O)cc2o1 [Esculetin],,81.4%
O=c1c(O)c(-c2cccc(O)c2)oc2ccccc12,,78.8%
C[C@H](CCC(=O)O)[C@H]1CC[C@H]2[C@@H]3[C@H](O)C[C@@H]4C[C@H](O)CC[C@]4(C)[C@H]3C[C@H](O)[C@]12C [Cholic acid],,78.1%
O=C(OCC(O)CO)c1ccccc1Nc1ccnc2cc(Cl)ccc12 (centres undefined),77.7%,
O=C(OCC(O)CO)c1ccccc1Nc1ccnc2cc(Cl)ccc12 (centres undefined) [Glafenine hydrochloride],60.2%,
CC(C(=O)O)c1ccc(-c2ccccc2)c(F)c1 (centres undefined) [Flurbiprofen],105 ± 9.9%,
CC(C(=O)O)c1ccc(-c2ccccc2)c(F)c1 (centres undefined),76.1% and 72.7%,
Cc1cc(O)c2c(c1)C(=O)c1cccc(O)c1C2=O [Chrysophanic acid],,65.3%
NC(=O)c1cn(Cc2c(F)cccc2F)nn1 [Rufinamide],93.9%,
NC(N)=NC(N)=Nc1cccc(Cl)c1 [1-(m-Chlorophenyl)-biguanide hydrochloride],79.6%,
C[C@H]1O[C@@H](O[C@H]2[C@@H](O)C[C@H](O[C@H]3[C@@H](O)C[C@H](O[C@H]4CC[C@@]5(C)[C@H](CC[C@@H]6[C@@H]5C[C@@H](O)[C@]5(C)[C@@H](C7=CC(=O)OC7)CC[C@]65O)C4)O[C@@H]3C)O[C@@H]2C)C[C@H](O)[C@@H]1O,78.2%,
C[C@H]1O[C@@H](O[C@H]2[C@@H](O)C[C@H](O[C@H]3[C@@H](O)C[C@H](O[C@H]4CC[C@@]5(C)[C@H](CC[C@@H]6[C@@H]5C[C@@H](O)[C@]5(C)[C@@H](C7=CC(=O)OC7)CC[C@]65O)C4)O[C@@H]3C)O[C@@H]2C)C[C@H](O)[C@@H]1O [Digoxin],84.1%,77.3%
